Measured values as given in publication PMC6566870.
These are yes or no findings as the source states them, for the method shown. For some assays here: In cells and extracts the contact can be indirect. Some binding calls cover weakened binding; strength is not graded here. For some assays here: Tags and fused reporters may be left off the sequences shown.

By UniProt entry, the sequences of proteins in these tests, tags left out. Residues count along the entry.
UniProt P32121: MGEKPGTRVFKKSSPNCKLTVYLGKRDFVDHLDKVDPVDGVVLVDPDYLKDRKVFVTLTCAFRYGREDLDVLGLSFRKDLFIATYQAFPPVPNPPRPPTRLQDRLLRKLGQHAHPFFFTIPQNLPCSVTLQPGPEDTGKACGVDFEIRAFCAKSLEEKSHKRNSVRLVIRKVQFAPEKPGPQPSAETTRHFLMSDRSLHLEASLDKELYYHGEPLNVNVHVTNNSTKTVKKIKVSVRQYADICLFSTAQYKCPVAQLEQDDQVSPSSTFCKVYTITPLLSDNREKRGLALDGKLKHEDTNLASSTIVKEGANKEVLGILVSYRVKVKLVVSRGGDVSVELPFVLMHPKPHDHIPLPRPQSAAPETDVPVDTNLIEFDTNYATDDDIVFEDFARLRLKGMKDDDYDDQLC
UniProt P10147, residues 24-92: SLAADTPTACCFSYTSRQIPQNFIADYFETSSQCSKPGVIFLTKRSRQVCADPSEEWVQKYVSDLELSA

Tests used:
[1] = target: T1, CCR1 fused to RLuc8 (human) (UniProt P32246); test: FRET or BRET; BRET between CCR1-RLuc8 and βArr2-YFP in transiently transfected Flp-In T-REx 293 cells; chemokine added 5 min after coelenterazine h, 10 min at 37 °C
T1 sequence: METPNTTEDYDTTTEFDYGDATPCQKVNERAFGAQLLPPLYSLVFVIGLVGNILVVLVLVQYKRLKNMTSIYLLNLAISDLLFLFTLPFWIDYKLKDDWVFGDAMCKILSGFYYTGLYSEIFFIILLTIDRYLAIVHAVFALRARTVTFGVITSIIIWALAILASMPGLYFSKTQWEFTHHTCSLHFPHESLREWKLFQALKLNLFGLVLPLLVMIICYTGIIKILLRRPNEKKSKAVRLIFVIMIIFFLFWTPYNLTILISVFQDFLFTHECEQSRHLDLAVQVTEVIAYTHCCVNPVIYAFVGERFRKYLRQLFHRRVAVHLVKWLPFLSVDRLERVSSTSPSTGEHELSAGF

[2] = target: N-terminally His6-tagged cMyc-tagged human CCR1 (human) (UniProt P32246); test: radioligand binding; competitive displacement of 50 pM 125I-CCL3 from membranes of Flp-In T-REx 293 cells expressing CCR1; 2 h at 37 °C; two sets of experiments (Table 1, Table 3); only the binder purified

| binding [1] | binding [2] | Substance |
| --- | --- | --- |
| binds |  | βArr2 fused to YFP (from UniProt P32121 1-409) |
|  | binds | 125I-labeled CCL3 (from UniProt P10147 24-92) (ligand) |
